Measured values taken from article PMC9206387.
No constants are given. Whether binding was seen depends on the method and setting. In cells and extracts the contact can be indirect. Some results given as binding are weak or reduced against the parent protein; the word gives no strength.

Protein sequences, listed by entry. Tags and fused reporters are not part of them. Residues count along the entry.
UniProt Q8N423, residues 22-597: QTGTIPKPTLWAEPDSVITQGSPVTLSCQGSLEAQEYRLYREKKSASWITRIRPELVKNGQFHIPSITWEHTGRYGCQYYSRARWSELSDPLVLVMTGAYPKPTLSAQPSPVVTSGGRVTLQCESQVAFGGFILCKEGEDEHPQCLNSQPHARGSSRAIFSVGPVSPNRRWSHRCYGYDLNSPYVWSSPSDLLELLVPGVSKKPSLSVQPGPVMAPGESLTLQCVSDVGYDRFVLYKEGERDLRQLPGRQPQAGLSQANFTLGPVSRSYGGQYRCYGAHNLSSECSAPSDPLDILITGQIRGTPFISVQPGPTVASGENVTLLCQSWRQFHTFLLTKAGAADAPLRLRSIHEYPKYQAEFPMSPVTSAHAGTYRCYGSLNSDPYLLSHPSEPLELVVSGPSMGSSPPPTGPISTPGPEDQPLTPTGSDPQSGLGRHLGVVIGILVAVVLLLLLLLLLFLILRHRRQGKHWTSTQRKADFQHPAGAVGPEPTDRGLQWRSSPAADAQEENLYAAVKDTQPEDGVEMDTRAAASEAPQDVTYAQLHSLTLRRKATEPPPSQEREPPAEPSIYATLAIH
UniProt P29350: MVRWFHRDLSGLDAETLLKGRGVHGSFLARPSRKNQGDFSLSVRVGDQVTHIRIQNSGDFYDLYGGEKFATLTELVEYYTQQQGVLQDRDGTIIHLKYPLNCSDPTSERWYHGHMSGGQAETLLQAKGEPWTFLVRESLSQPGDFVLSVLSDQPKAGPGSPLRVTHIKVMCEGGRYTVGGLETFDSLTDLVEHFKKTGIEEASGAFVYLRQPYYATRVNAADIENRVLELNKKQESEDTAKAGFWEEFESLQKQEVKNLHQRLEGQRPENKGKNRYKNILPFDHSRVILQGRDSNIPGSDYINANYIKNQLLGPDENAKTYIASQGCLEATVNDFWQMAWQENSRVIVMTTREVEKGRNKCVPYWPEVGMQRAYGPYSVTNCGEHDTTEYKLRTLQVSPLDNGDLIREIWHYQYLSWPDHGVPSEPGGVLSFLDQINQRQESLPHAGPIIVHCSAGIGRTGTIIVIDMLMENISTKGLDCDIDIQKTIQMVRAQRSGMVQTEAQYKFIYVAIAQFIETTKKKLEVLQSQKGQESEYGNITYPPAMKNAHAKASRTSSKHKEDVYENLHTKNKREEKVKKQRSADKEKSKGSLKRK

Target: LILRB2, endogenous in HMC3 cells (human (endogenous in HMC3)) (UniProt Q8N423)
Test: co-IP; anti-LILRB2 immunoprecipitation from HMC3 cells incubated with oAβ-lipoprotein complex and indicated treatments (Ctrl IgG, Ab29, plate-bound 42D1) for 1 hour; immunoblot of pSHP1 and SHP1, LILRB2 as loading control

binding: binds
Substance: Src homology region 2 domain-containing phosphatase-1 (from UniProt P29350 1-595) (enzyme)
